In PubChem BioAssay AID504467 (National Center for Advancing Translational Sciences (NCATS), 2011):
The whole screen tested about 330,000 compounds, of which about 7,700 (2.3%) were called active. Inconclusive results, whose numbers are uncertain, are shown with a selection of clear calls. Calls come from the whole dose curve; as a rule, active = well fitted inhibition curve with a large enough effect; inconclusive = small, poorly fitted or top-dose-only effect, or effect the other way; inactive = flat fitted curve, though single readings scatter. A potency beside an inconclusive call is a rough fit, not a confirmed value.

Experiment: qHTS screen for small molecules that inhibit ELG1-dependent DNA repair in human embryonic kidney (HEK293T) cells expressing luciferase-tagged ELG1; note: nearly all actives have a fitted effect of over 55% in size
Conditions: HEK293T ELG1-luciferase reporter, luminescence, 16 h, DNA damage induced by 5-fluorouridine; activity change, negative = inhibition: at 46.1 µM (top of the series)
In short: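 Overnight (16 hr) co-exposure of 2,000 cells/well to 5-fluorouridine and compound at 37 °C preceded detection. Luciferase was quantified via ONE-Glo luminescence; loss of signal denotes inhibition.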
% is set by controls: 0 for no effect and ±100 for the full control effect; potency is the fitted concentration of half-maximal effect.

Compound | Potency | activity change, negative = inhibition
CCOC(=O)NN1C(=O)c2ccccc2NC12CCCC2 | inconclusive: 20.6 µM [inhibitor, partial curve, poor fit] | –
CCOC(=O)/C(N=Nc1sc(C(=O)OCC)c(C)c1C(=O)OCC)=C(\C)O | – | inactive: 13.1%
COc1cc(/C=N/N=C2/NC(=O)C(Cc3ccccc3)S2)ccc1O (centres undefined) | inconclusive: 8.2 µM [activator, partial curve] | –
Cc1ccc(CNC(=O)COC(=O)c2cc(=O)[nH]c3ccccc23)cc1 | inconclusive: 16.4 µM [activator, single point] | –
COCCCNC(=O)CN1C(=O)/C(=C\c2ccc(C)cc2)Sc2ccccc21 | inconclusive: 23.1 µM [activator, single point] | –
CC(=O)NCCNC(=O)CNC(=O)c1ccc(Cl)cc1 | inconclusive: 16.4 µM [activator, partial curve, poor fit] | –
COc1ccc(N=C2NC(=O)/C(=C/c3ccco3)S2)cc1 | inconclusive: 29.1 µM [activator, single point] | –
COc1ccc(C2(c3ccc(OC)cc3)NC(=O)N(CC(=O)NC3CCCC3)C2=O)cc1 | – | inactive: -2.53%
CC(=O)Oc1ccc2cc(-c3ccccc3)c(=O)oc2c1 | inconclusive: 10.3 µM [activator, partial curve] | –
CCCC(=O)Nc1ccc(N2CCCCC2)cc1 | inconclusive: 18.4 µM [activator, partial curve] | –
CCN(CC)S(=O)(=O)c1ccc2oc(C(=O)NCC3COc4ccccc4O3)c(C)c2c1 (centres undefined) | inconclusive: 10.3 µM [inhibitor, partial curve] | –
c1ccc(-c2ccc(-n3ccnc3)cc2)cc1 | inconclusive: 16.4 µM [activator, partial curve] | –
COc1ccc(-c2cc3cc(F)ccc3cn2)cc1 | inconclusive: 1.3 µM [activator, full curve] | –
CCc1ccc(-c2nc(CN3CCC(C(=O)N4CCN(c5ccccn5)CC4)CC3)c(C)o2)cc1 | active: 4.11 µM | –
O=C(NC(C(=O)O)c1ccccc1)c1ccccc1 (centres undefined) | – | inactive: 2.48%
Cc1cc([N+](=O)[O-])ccc1NC(=O)c1cccc(NC(=O)C(C)C)c1 | inconclusive: 20.6 µM [inhibitor, partial curve, poor fit] | –
COc1ccc2oc(C(=O)NN3C(C)CCCC3C)c(C)c2c1 (centres undefined) | – | inactive: 6.37%
CN(C)c1ccc(NC(=O)c2sc(SCC(=O)Nc3nccs3)nc2N)cc1 | inconclusive: 3.26 µM [activator, partial curve] | –
NC(=O)CSc1ncc(-c2ccc([N+](=O)[O-])cc2)[nH]1 | inconclusive: 20.6 µM [activator, single point] | –
CCOc1ccc(NC(=O)CN(C)CC(=O)Nc2cccc(Cl)c2C)cc1OCC | inconclusive: 29.1 µM [inhibitor, partial curve, poor fit] | –
Cc1ccccc1C(=O)Nc1ccc(-c2nc3ccc(C(=O)c4ccccc4)cc3[nH]2)cc1 | inconclusive: 8.2 µM [inhibitor, partial curve, poor fit] | –
CN(Cc1ccccc1)C(=O)c1ccc(NC(=O)Cc2cccc(NC(=O)C3CCCN(C(=O)C4CCC4)C3)c2)cc1 (centres undefined) | inconclusive: 8.2 µM [inhibitor, partial curve, poor fit] | –

Structures above that have a Cl atom, in the order listed:
Compound | Potency | activity change, negative = inhibition
CC(=O)NCCNC(=O)CNC(=O)c1ccc(Cl)cc1 | inconclusive: 16.4 µM [activator, partial curve, poor fit] | –
CCOc1ccc(NC(=O)CN(C)CC(=O)Nc2cccc(Cl)c2C)cc1OCC | inconclusive: 29.1 µM [inhibitor, partial curve, poor fit] | –

(more compounds)

Compound | Potency | activity change, negative = inhibition
CC(C)(Oc1ccc(Cl)cc1)C(=O)NC1=NN(c2ccccc2)C(=O)C1 | – | inactive: 5.25%
CC(=O)c1c(C)oc2ccc(NS(=O)(=O)c3ccc(F)cc3C)cc12 | active: 6.51 µM | –
CCOc1ccc2c(c1)S/C(=C\c1cccs1)C(=O)N2 | inconclusive: 16.4 µM [activator, partial curve] | –
CCN(CC)S(=O)(=O)c1ccc2c(c1)nc(CCC(=O)Nc1ccc3c(c1)OCO3)n2C | – | inactive: -9.73%
Cc1cccc(CSc2ncnc3c2cnn3Cc2ccccc2)c1 | – | inactive: 1.5%
Cc1cccc(OCc2n[nH]c(=S)o2)c1C | – | inactive: 1.6%
O=C(CCN1CCOCC1)Nc1cc(C(=O)Nc2ccc(Cl)cc2)ccc1N1CC2CC(C1)c1cccc(=O)n1C2 (centres undefined) | inconclusive: 3.26 µM [inhibitor, partial curve] | –
Cc1ccnc(NC(=O)CNC(=O)c2ccc3c(c2)OCO3)c1 | inconclusive: 20.6 µM [activator, single point] | –
Cn1c(=O)c2c(ncn2CC(=O)Nc2nc(-c3ccccc3Cl)cs2)n(C)c1=O | – | inactive: -12.8%
C(=N\Nc1ncnc2ccccc12)/c1ccccc1 | inconclusive: 2.59 µM [activator, partial curve] | –
COc1ccc(C(=O)Cn2nnc(-c3ccc(N4CCOCC4)cc3)n2)cc1OC | inconclusive: 16.4 µM [inhibitor, partial curve] | –
CCOC(=O)c1ccc(N=c2sc(C(=O)OC)cc(=O)n2Cc2ccco2)cc1 | inconclusive: 29.1 µM [inhibitor, single point] | –
COc1c([N+](=O)[O-])c(=O)oc2ccccc12 | inconclusive: 13 µM [activator, partial curve, poor fit] | –
CCOC(=O)c1c(C)[nH]c(C(=O)COC(=O)c2oc3ccc(OC)cc3c2C)c1C | – | inactive: 10.9%
O=C(COC(=O)[C@@H]1CCCN1S(=O)(=O)c1ccc(Cl)cc1)NCC(F)(F)F | – | inactive: -1.41%
COc1ccc(-c2cc(=O)oc3c(C)c(OC(=O)c4cccs4)ccc23)cc1 | active: 4.11 µM | –
COc1nc(C)nc2c1sc1nc3c(cc12)COC(C)(C)C3 | inconclusive: 8.2 µM [activator, partial curve] | –
c1cncc(-c2nnc(-c3cccs3)o2)c1 | inconclusive: 23.1 µM [activator, partial curve] | –
CCN1CCN(C(=O)c2cnn3c(C(F)F)cc(-c4ccc(C)cc4)nc23)CC1 | inconclusive: 8.2 µM [inhibitor, partial curve] | –
CN(C)C(=O)C1(c2ccccc2)CCN(S(=O)(=O)c2ccccc2)CC1 | inconclusive: 16.4 µM [inhibitor, partial curve] | –
CC(=O)N1C(=O)c2cccc3cccc(c23)C(=O)N1C(C)=O | – | inactive: 5.29%
C#CCN1C(=O)C(O)(CC(=O)c2ccc3c(c2)OCCO3)c2ccccc21 (centres undefined) | – | inactive: 13%
